# Measurements from patent US6590123B2, “Aminobenzoic acid derivatives having anti-tumorigenic activity, methods of making and using the same” (Mount Sinai School of Medicine of New York University, priority 1998, dated 2003).
# System: P338 leukemia lymphoma cells
# Assay: Survival and ED50 in mice implanted i.p. with P338 lymphoma
# Assay type: in vivo, male C57 BL/6JX mice
# Method: FIG. 9 is a plot graph of the survival rate of male C57 BL/6JX mice implanted (i.p.) with P338 lymphoma, from 10 to 40 days after implantation. Two groups were used for the study: a control group of ten and a test group of ten that were treated with 20 mg/kg, (i.p.) of compound 8 at 2 and 8 days post-implantation.
# The in vivo efficacy of 3-BAABU and 3-IAABU of the present invention was asssessed in a murine model, along with known anti-tubule agents, vinblastine and paclitaxel, as a comparative standard. Approximately 10^6 P338 leukemia lymphoma cells/mouse were implanted intra-peritoneal (i.p.) into male C57 BL/6JX mice (Jackson Laboratories, N.Y.). On days 2 and 8 post-implantation, drugs were administrated i.p. at the following concentration ranges: 3-BAABU from 16.6 to 116 μmole/kg, 3-IAABU from 14.4 to 101 μmole/kg, vinblastine from 2.2 to 20 μmole/kg and paclitaxel from 28 to 57 μmole/kg.
# Both control and treated animals were examined for ascitic tumor burden daily for 35 days. […] Therapeutic index was defined as the ratio of LD50 (lethal dose) to ED50 (effective dose).
row,SMILES,therapeutic index (ratio of LD50 to ED50)
1,"NC(=O)NC(=O)c1cccc(NC(=O)CBr)c1 [Compound 8, 3-Bromoacetoamido, benzoylurea]",3.4
2,"NC(=O)NC(=O)c1cccc(NC(=O)CI)c1 [Compound 9, 3-Iodoacetoamido, benzoylurea]",3.4
3,CC(=O)O[C@H]1C(=O)[C@@]2(C)[C@H]([C@H](OC(=O)c3ccccc3)[C@]3(O)C[C@H](OC(=O)[C@H](O)[C@@H](NC(=O)c4ccccc4)c4ccccc4)C(C)=C1C3(C)C)[C@]1(OC(C)=O)CO[C@@H]1C[C@@H]2O [Paclitaxel],1.2
4,"CC[C@]1(O)C[C@@H]2CN(CCc3c([nH]c4ccccc34)[C@@](C(=O)OC)(c3cc4c(cc3OC)N(C)[C@H]3[C@@](O)(C(=O)OC)[C@H](OC(C)=O)[C@]5(CC)C=CCN6CC[C@]43[C@@H]65)C2)C1 [Vinblastine, vinblastine sulfate]",2.0

# Structures can show the parent of a compound that is named as a salt.
